From US8993515B2 (Valorisation-Recherche, Limited Partnership, priority 2012, dated 2015)

Key:
[1] = general procedure: Fmoc solid-phase peptide synthesis; Polystyrene Rink Amide resin (0.64 mmol/g, 75-100 mesh); HBTU, DIEA; conditions: whole synthesis; for final purity (method not given): analytical LCMS and HPLC, C18 Phenomenex Gemini column; for crude HPLC purity / final HPLC purity: 214 nm
[2] = peptide synthesis; conditions: whole synthesis

| Substance | final purity (method not given) [1] [%] | isolated yield ([1]; overall) [%] | crude HPLC purity [1] [%] | final HPLC purity [1] [%] | isolated yield ([1]; on Fmoc loading of Rink amide) [%] | crude HPLC purity [2] [%] | final HPLC purity [2] [%] | isolated yield [2] [%] |
| --- | --- | --- | --- | --- | --- | --- | --- | --- |
| His-D-Trp-Ala-(N-amino-4-methyl-imidazolin-2-one)-L-Phe-Lys-NH2 | >99 | 4 | – | – | – | – | – | – |
| D-Arg-D-Tyr-Nai-D-Val-D-Glu-D-Leu-D-Ala-NH2 | – | – | 53 | 99 | 21 | – | – | – |
| His-D-Trp-Ala-(N-amino-4-methyl-imidazolin-2-one)-D-Phe-Lys-NH2 | >99 | 6 | – | – | – | – | – | – |
| Nap-D-Trp-Ala-Trp-D-Phe-Lys-NH2 | – | – | 42 | 95 | 5 | – | – | – |
| His-D-Trp-Ala-Nad-D-Phe-Lys-NH2 | – | – | 20 | 99 | 3 | – | – | – |
| His-D-Trp-Ala-Nap-D-Phe-Lys-NH2 | – | – | 29 | 99 | 11 | – | – | – |
| D-Arg-D-Tyr-Nap-D-Val-D-Glu-D-Leu-D-Ala-NH2 | – | – | 49 | 99 | 19 | – | – | – |
| His-D-Trp-Nap-Trp-D-Phe-Lys-NH2 | – | – | – | – | – | 21 | 99 | 7 |
| His-D-Trp-Nai-Trp-D-Phe-Lys-NH2 | – | – | 29 | 99 | 5 | – | – | – |
| His-D-Trp-Ala-Trp-Nap-Lys-NH2 | – | – | 8 | 99 | 2 | – | – | – |
| His-Nap-Ala-Trp-D-Phe-Lys-NH2 | – | – | 37 | 99 | 9 | – | – | – |
| D-Arg-D-Tyr-Nad-D-Val-D-Glu-D-Leu-D-Ala-NH2 | – | – | 19 | 99 | 5 | – | – | – |
| Nad-D-Trp-Ala-Trp-D-Phe-Lys-NH2 | – | – | 16 | 98 | 4 | – | – | – |
| His-D-Trp-Ala-Nai-D-Phe-Lys-NH2 | – | – | 14 | 99 | 6 | – | – | – |
| His-Nai-Ala-Trp-D-Phe-Lys-NH2 | – | – | 26 | 96 | 7 | – | – | – |
